No constants are given. Whether binding was seen depends on the method and setting. In cells and extracts the contact can be indirect. Some results given as binding are weak or reduced against the parent protein; the word gives no strength.
Target: nucleoprotein NP (A/WSN/1933) (influenza A virus A/WSN/1933) (UniProt P15682)
Test: co-IP

Sequences of proteins named here, by UniProt entry; tags and fusion partners are left off.
UniProt P15682: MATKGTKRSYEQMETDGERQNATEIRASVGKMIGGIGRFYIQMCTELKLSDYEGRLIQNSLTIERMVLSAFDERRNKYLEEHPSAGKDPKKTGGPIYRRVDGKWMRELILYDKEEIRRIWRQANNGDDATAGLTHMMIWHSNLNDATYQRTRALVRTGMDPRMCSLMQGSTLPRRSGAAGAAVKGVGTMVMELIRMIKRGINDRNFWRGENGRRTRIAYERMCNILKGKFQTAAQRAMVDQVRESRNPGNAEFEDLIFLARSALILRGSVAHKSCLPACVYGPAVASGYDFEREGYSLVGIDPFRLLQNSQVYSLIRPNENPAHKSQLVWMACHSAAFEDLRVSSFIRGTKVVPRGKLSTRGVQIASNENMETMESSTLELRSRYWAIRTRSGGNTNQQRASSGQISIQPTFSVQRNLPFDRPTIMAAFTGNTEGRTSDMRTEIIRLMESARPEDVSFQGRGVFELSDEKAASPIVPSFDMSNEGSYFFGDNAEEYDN
UniProt P03430: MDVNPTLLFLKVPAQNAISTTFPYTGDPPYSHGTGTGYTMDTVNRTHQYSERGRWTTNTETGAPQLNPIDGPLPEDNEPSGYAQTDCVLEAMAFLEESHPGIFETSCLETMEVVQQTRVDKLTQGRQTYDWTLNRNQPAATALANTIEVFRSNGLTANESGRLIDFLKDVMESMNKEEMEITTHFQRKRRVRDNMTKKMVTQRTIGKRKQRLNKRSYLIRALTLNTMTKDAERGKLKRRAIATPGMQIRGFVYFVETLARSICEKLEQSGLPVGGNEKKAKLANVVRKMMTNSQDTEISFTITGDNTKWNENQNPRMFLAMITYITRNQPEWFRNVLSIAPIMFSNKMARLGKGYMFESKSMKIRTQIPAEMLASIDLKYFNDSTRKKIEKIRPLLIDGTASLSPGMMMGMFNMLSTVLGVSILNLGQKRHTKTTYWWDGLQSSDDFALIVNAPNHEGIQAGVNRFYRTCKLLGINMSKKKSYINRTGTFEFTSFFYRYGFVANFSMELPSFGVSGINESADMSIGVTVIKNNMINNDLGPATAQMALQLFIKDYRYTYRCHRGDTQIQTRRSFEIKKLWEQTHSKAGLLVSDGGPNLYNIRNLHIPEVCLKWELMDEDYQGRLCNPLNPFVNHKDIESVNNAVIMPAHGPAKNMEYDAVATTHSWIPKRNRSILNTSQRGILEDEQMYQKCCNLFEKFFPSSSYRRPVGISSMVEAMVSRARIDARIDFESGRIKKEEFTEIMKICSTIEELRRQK

**Q.** Which binding does the source give for “FLAG-tagged PB1 (wild type, A/WSN/1933) (from UniProt P03430 1-757)” here?
**A.** binds

From paper PMC7494117
